Data: article PMC8137702
These are yes or no findings as the source states them, for the method shown. For part of these data: Binding seen in cells or lysates may run through a third protein. Some entries that bind do so weakly or less than the wild type. One block for each molecule: values may come before it.

The chains behind the UniProt entries cited, without tags or fusion partners.
UniProt Q9WTV6: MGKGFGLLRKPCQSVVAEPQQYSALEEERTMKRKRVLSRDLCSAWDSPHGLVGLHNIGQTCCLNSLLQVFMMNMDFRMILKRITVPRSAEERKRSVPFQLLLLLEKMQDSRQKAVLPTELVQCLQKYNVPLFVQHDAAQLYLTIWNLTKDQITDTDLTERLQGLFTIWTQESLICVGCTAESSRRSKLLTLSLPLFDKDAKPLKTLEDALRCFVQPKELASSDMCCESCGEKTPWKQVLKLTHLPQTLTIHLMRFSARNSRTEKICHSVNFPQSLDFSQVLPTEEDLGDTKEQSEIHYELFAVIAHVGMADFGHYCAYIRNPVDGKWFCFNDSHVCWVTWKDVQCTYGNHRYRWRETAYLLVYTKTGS

Assays:
[1] = target: T1, endogenous MAVS (mouse RAW264.7 cells and MEFs) (mouse (endogenous in RAW264.7 and MEFs)) (UniProt Q8VCF0); test: co-IP
T1 sequence: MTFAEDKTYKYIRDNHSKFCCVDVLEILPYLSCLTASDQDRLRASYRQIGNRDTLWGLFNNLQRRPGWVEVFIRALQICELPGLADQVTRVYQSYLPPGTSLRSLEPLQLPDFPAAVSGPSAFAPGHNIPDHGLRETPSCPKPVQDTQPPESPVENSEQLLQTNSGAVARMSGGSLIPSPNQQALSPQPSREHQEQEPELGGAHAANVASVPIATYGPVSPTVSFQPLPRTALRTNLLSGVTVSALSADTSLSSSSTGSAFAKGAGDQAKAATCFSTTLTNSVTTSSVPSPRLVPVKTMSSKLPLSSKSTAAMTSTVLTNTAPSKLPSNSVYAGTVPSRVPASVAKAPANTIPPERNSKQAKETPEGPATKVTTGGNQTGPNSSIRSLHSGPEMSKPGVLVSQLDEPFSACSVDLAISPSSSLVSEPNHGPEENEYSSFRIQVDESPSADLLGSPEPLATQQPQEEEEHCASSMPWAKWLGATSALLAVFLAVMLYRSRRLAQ

[2] = target: T2, endogenous IRF3 (MEFs) (mouse (endogenous in MEFs)), P70671; test: native gel or EMSA; details: remark: other sources report otherwise
T2 chain: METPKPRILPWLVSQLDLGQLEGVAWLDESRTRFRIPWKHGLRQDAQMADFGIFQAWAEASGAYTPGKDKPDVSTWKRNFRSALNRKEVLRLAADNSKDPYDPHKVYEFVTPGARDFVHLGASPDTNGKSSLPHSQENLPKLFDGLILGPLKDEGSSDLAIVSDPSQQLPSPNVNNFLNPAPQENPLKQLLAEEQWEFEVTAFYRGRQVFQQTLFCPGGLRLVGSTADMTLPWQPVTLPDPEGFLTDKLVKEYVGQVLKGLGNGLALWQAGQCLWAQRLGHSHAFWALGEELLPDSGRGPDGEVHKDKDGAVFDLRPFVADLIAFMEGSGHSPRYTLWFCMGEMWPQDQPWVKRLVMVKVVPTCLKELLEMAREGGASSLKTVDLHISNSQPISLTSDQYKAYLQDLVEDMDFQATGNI

[3] = target: T3, endogenous MAVS (mouse RAW264.7 cells and MEFs) (mouse (endogenous in RAW264.7 and MEFs)), Q8VCF0; test: SDD-AGE; details: remark: other sources report otherwise
T3 chain: T1 sequence

binding [1]: binds
Molecule: endogenous USP18 (RAW264.7 cells) (from UniProt Q9WTV6 1-368) (enzyme)

binding [2]: binds
B1: endogenous IRF3 (MEFs), P70671 1-419 (protein)
chain: T2 chain

binding [3]: binds
B2: endogenous MAVS (mouse RAW264.7 cells and MEFs), Q8VCF0 1-503 (protein)
chain: T1 sequence
